From PubChem BioAssay AID504834 (National Center for Advancing Translational Sciences (NCATS), 2011)
About 22,000 (6.9%) of roughly 320,000 compounds were called active. This list was built around the results that the source calls inconclusive (neither active nor inactive); the mix of calls is not that of the screen. The call rests on the fitted dose curve; in most records, active means well fitted inhibition curve with a large enough effect; inconclusive means small, poorly fitted or top-dose-only effect, or another doubt; inactive means no such curve, though single readings can be large or run the other way. A potency beside an inconclusive call is a rough fit, not a confirmed value.

test: Primary qHTS for delayed death inhibitors of the malarial parasite plastid, 96 hour incubation; details: P. falciparum luciferase reporter growth; series mostly up to 28.7 µM
Summary of the method: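 P. falciparum expressing integrated firefly luciferase, in erythrocytes at 2% hematocrit, 0.05% parasitemia, incubated with compounds 96 h at 37 C, 5% CO2. Growth inhibition read as loss of luminescence; two-generation exposure targets delayed-death apicoplast inhibitors.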
On the % scale 0 is the no-effect control and ±100 the full control effect; potency means the concentration at half of the fitted maximal effect.

SMILES	Potency	activity change, negative = inhibition
CCn1cc(CNCc2ccc(OCC(O)CN(C)Cc3ccccc3)cc2)cn1 (stereo not given)	inconclusive: 11.7 µM [inhibitor, single point]	–
CC1CC(C)CN(CCCNC(=O)c2csc3c2CCCC3)C1 (stereo not given)	inactive	–
CN(C(=O)CCNC(=O)Cn1ccc2ccccc2c1=O)c1ccc(Br)cc1	inconclusive: 1.31 µM [inhibitor, full curve, poor fit]	–
CCCC(C)NC(=O)c1ccc(OCc2ccc(Cl)cc2)c(OC)c1 (stereo not given)	inconclusive: 11.7 µM [inhibitor, single point]	–
COc1ccc(/C=C(\C#N)C(=O)OCC(=O)Nc2ccc(-c3nc4ccc(C)cc4s3)cc2)cc1	inactive	–
COc1ccc(S(=O)(=O)N2CCN(C3CCN(Cc4ccccc4)CC3)CC2)cc1	inconclusive: 13.1 µM [inhibitor, single point]	–
O=C(COC(=O)COc1ccc(Br)cc1)Nc1ccc2c(c1)OCCO2	inactive	–
CCN(CC)CCNC(=O)c1cc(S(C)(=O)=O)ccc1OC	inactive	–
N#CC1=C(N)SC2(CCCCC2)SC1c1ccccc1 (stereo not given)	inactive	–
COc1ccc(OC)c(/C=N/NC(=O)CN2CCSCC2)c1	inconclusive: 0.262 µM [inhibitor, full curve, poor fit]	–
CCCCN(C(=O)c1ccc(NC(=O)C(C)C)cc1)c1ccccc1	inconclusive: 4.15 µM [inhibitor, partial curve, poor fit]	–
CSc1ccccc1OCc1cc(C(=O)NC(C)c2cnn(C)c2)no1 (stereo not given)	inconclusive: 18.5 µM [inhibitor, single point]	–
Cc1ccc(C(=O)NNC(=O)CSc2nnc3c(n2)[nH]c2ccc(F)cc23)cc1	inconclusive: 11.7 µM [inhibitor, partial curve, poor fit]	–
COc1ccc(N2C(=O)/C(=C/c3ccc(C)o3)C(=O)NC2=S)cc1	inactive	–
CCCc1cc(=O)oc2cc(C)cc(OC(C)C(=O)NCc3cccnc3)c12 (stereo not given)	active: 4.65 µM	–
O=C(/C=C/c1ccc(Br)cc1)c1ccc(NC(=O)c2ccco2)cc1	inactive	–
Nn1cnnc1SCC(=O)Nc1ccc2c(c1)OCO2	inactive	–
COc1ccc(-c2sc3cc4c(cc3c2C#CC2(N)CCCCC2)OCO4)cc1	inconclusive: 16.5 µM [inhibitor, single point]	–
COc1ccccc1N1CCN(S(=O)(=O)CCNC(=O)C2CCCCC2)CC1	inactive	–
NC(=O)c1ccc(NC(=O)CN2CCN(S(=O)(=O)c3ccc4c(c3)OCCO4)CC2)cc1	inactive	–
O=C(O)CCN1C(=O)c2ccc(NC(=O)Cc3ccc(Cl)cc3)cc2C1=O	inconclusive: 14.7 µM [inhibitor, single point]	–
N#Cc1ccc(N/N=C/c2ccccc2)c([N+](=O)[O-])c1	–	inactive: -5.29% [at 5.75 µM]
O=C(NCC1(O)CCCCC1)C1CCC(=O)N(Cc2ccccc2F)C1 (stereo not given)	inconclusive: 14.7 µM [inhibitor, partial curve]	–
COc1ccc(OC)c(S(=O)(=O)N2CCN(CC(O)COc3ccc(C#N)cc3)CC2)c1 (stereo not given)	inconclusive: 10.4 µM [inhibitor, partial curve]	–

Part of the list above, as labelled records.
COc1ccc(/C=C(\C#N)C(=O)OCC(=O)Nc2ccc(-c3nc4ccc(C)cc4s3)cc2)cc1
  Potency: inactive
O=C(O)CCN1C(=O)c2ccc(NC(=O)Cc3ccc(Cl)cc3)cc2C1=O
  Potency: inconclusive: 14.7 µM [inhibitor, single point]
O=C(NCC1(O)CCCCC1)C1CCC(=O)N(Cc2ccccc2F)C1 (stereo not given)
  Potency: inconclusive: 14.7 µM [inhibitor, partial curve]
COc1ccc(OC)c(S(=O)(=O)N2CCN(CC(O)COc3ccc(C#N)cc3)CC2)c1 (stereo not given)
  Potency: inconclusive: 10.4 µM [inhibitor, partial curve]

(next part)

SMILES	Potency	activity change, negative = inhibition
N#C/C(=C\c1ccc[nH]1)C(=O)Nc1ccccc1F	inactive	–
Cc1cccc(C)c1OCC(=O)NNC(=O)CCNC(=O)c1ccco1	inactive	–
CCC(C)(C)n1nnnc1C(c1cccnc1)N1CCC(Cc2ccccc2)CC1 (stereo not given)	inconclusive: 1.85 µM [inhibitor, partial curve]	–
COc1cc2nc(CN(C)Cc3ccc(Cl)cc3)[nH]c(=O)c2cc1OC	inconclusive: 10.4 µM [inhibitor, single point]	–
O=C(OCc1cccc([N+](=O)[O-])c1)c1cccnc1	inconclusive: 7.38 µM [inhibitor, partial curve, poor fit]	–
Cc1cc(C)nc(SCCCNCc2ccc(Br)cc2)n1	inconclusive: 5.22 µM [inhibitor, partial curve, poor fit]	–
CCOc1cc(C(N)=O)cc(Br)c1OC	inactive	–
Cc1nc(N/N=C/c2ccc(Br)cc2)cc(N2CCOCC2)n1	inconclusive: 14.7 µM [inhibitor, single point]	–
COc1ccc2nc3c(cc2c1)c(NC(=O)c1cccs1)nn3CC(C)C	inactive	–
Cc1cccc(NC(=O)c2cc(S(=O)(=O)N(C)c3ccc(F)cc3)ccc2Cl)n1	active: 0.37 µM	–
Cc1cc2cc(CNC(=O)Cc3ccc([N+](=O)[O-])cc3)ccc2[nH]1	inconclusive: 14.7 µM [inhibitor, partial curve, poor fit]	–
CN(C(=O)CC1C(=O)NCCN1C/C=C/c1ccccc1)C1CCOCC1 (stereo not given)	inconclusive: 3.7 µM [inhibitor, single point]	–
Cc1ccc2cc(CN(c3ccccc3C)S(=O)(=O)c3ccccc3)c(=O)[nH]c2c1	inconclusive: 0.0657 µM [inhibitor, full curve, poor fit]	–
Cc1ccc(C(=O)Nc2nnc(S(=O)(=O)N3CCOCC3)s2)cc1	inconclusive: 10.4 µM [inhibitor, single point]	–
O=C(Nc1ccc(S(=O)(=O)Nc2nccs2)cc1)c1ccc(S(=O)(=O)N2CCOCC2)cc1	inconclusive: 4.15 µM [inhibitor, single point]	–
Cc1c(Cl)cccc1NC(=O)COC(=O)Cn1cnc2c1c(=O)n(C)c(=O)n2C	inactive	–
Cc1cc(C(=O)N2CCCC(N3CCN(c4ccccc4C)CC3)C2)n(C)n1 (stereo not given)	inconclusive: 13.1 µM [inhibitor, single point]	–
CCCOc1ccc(N2C(=O)CC(N(Cc3ccc(OC)cc3)C(=S)Nc3ccccc3)C2=O)cc1 (stereo not given)	inconclusive: 7.38 µM [inhibitor, partial curve, poor fit]	–
Cc1cc(C(=O)N/N=C/c2ccc(O)c([N+](=O)[O-])c2)c(C)n1-c1ccc(F)cc1	inconclusive: 11.7 µM [inhibitor, single point]	–
COc1cccc(C2C(C#N)=C(N)Oc3cc(C)[nH]c(=O)c32)c1OC (stereo not given)	inconclusive: 18.5 µM [inhibitor, single point]	–
COc1ccc(-c2noc(=O)n2Cc2ccccc2F)cc1	inconclusive: 14.7 µM [inhibitor, single point]	–
COc1ccccc1-c1csc(NC(=O)c2cc(-c3cccs3)nc3ccccc23)n1	active: 7.38 µM	–
O=C(NNC(=O)c1ccccc1Cl)c1ccc(-n2cncn2)c([N+](=O)[O-])c1	inactive	–
COc1ccc(CCC(=O)N2CCN(c3ccc([N+](=O)[O-])cc3)CC2)cc1OC	inconclusive: 14.7 µM [inhibitor, partial curve, poor fit]	–

SMILES	Potency	activity change, negative = inhibition
CCOC(=O)c1ccccc1NC(=O)COC(=O)c1ccccc1C(=O)N(C)c1ccccc1	inconclusive: 13.1 µM [inhibitor, single point]	–
O=C(NCc1ccc2c(c1)OCO2)c1ccc(N2CCCCCC2)c([N+](=O)[O-])c1	inconclusive: 10.4 µM [inhibitor, single point]	–
c1ccc(-c2cn3c(n2)CCc2ccc4cccnc4c2-3)cc1	inconclusive: 20.8 µM [inhibitor, partial curve, poor fit]	–
O=C(CSc1ccc(Cl)cc1)NCC1CCCO1 (stereo not given)	inactive	–
Cc1cccc(OCC(=O)NCCNC(=O)c2ccco2)c1	inactive	–
COC(=O)CN1C(=O)N/C(=C/c2cc3c(cc2OC)OCO3)C1=O	inactive	–
Cc1cc(=O)[nH]c2c(C)c(N)ccc12	inconclusive: 18.5 µM [inhibitor, single point]	–
COc1ccc(Cl)cc1NC(=O)CN(C)C(=O)c1ccc2n[nH]nc2c1	inactive	–
COc1cccc(C(=S)N2CCCC2)c1OC	inconclusive: 0.0026 µM [inhibitor, full curve, poor fit]	–
CCc1cc2cc(C)cc(C)c2[nH]c1=S	inactive	–
CCC(C)c1ccccc1N1CC(C(=O)N2CCN(S(=O)(=O)c3ccc(F)cc3)CC2)CC1=O (stereo not given)	inconclusive: 13.1 µM [inhibitor, partial curve, poor fit]	–
C=CCN=c1scc(-c2ccco2)n1/N=C/c1ccc(O)c(O)c1O	inconclusive: 18.5 µM [inhibitor, single point]	–
CCCCn1c(N)c(N(CCOC)C(=O)c2cc(-c3ccc(F)cc3)nc3ccccc23)c(=O)[nH]c1=O	inconclusive: 3.7 µM [inhibitor, partial curve]	–
COc1ccc(C(C)=O)cc1CC(C(=O)c1ccc(C)cc1)N(C)C (stereo not given)	inconclusive: 13.1 µM [inhibitor, single point]	–
Cc1cccc(-c2oc3ccc(-c4ccc5c(c4)OCO5)cc3c2/C=C/c2ccc(N)cc2)c1	inconclusive: 18.5 µM [inhibitor, single point]	–
CCOC(=O)C1CCN(C(=O)Cn2nc(CC)n3cccc3c2=O)CC1	inconclusive: 18.5 µM [inhibitor, single point]	–
COc1ccc(-c2noc(C(C)NS(=O)(=O)c3ccc(NC(C)=O)cc3)n2)cc1 (stereo not given)	inactive	–
COc1cc(C)ccc1OCCOc1c(Cl)cc(Cl)cc1Cl	inactive	–
Nn1c(C2COc3ccccc3O2)n[nH]c1=S (stereo not given)	inconclusive: 2.62 µM [inhibitor, full curve, poor fit]	–
CN(c1ccc(C(=O)NC2CCCC2)cc1)S(=O)(=O)c1ccccc1	inactive	–
O=C1N(Cc2cccc(Cl)c2)C[C@@H]2C[C@@H](c3cccc4cccnc34)N3CCC[C@@]123	inconclusive: 18.5 µM [inhibitor, single point]	–
CCOC(=O)N1CCN(C(=O)c2cc3cc(F)ccc3[nH]2)CC1	inconclusive: 8.28 µM [inhibitor, single point]	–
